This passage reports binding results from patent publication US20160297889A1 (TORAY INDUSTRIES, published 2016).

The chains are these.
B1: humanized antibody #8 (antibody, V domains shown)
VH: QSLVESGGGLVQPGGSLRLSCAASGFSLSSHSLGWVRQAPGKGLEWIGDIRSGGSAYYANWAKGRFTISRTSSKNTVYLQMNSLRAEDTAVYFCTRTNGPSDLTNRLDLWGQGTLVTVSS
VL: QVLTQSPSSLSASVGDRVTINCQASQSLYNNENLAWFQQKPGKVPKRLIYGASTLASGVSSRFSGSGSGTEFTLTISSLQCEDFAIYYCLGEFSCGSADCFAFGGGTKVEIK
B2: humanized antibody #2 (antibody, V domains shown)
VH: EVQLVESGGGLVQPGGSLRLSCAASGFSLSSHSLGWVRQAPGKGLEWIGDIRSGGSAYYANWAKGRFTISRDNSKNTLYLQMNSLRAEDTAVYYCTRTNGPSDLTNRLDLWGQGTLVTVSS
VL: EIVLTQSPSSLSASVGDRVTINCQASQSLYNNENLAWFQQKPGKVPKRLIYGASTLASGVSSRFSGSGSGTEFTLTISNLQPEDFATYYCLGEFSCGSADCFAFGGGTKVEIK
B3: humanized antibody #7 (antibody, V domains shown)
VH: B2 VH
VL: B1 VL
B4: humanized antibody #10 (antibody, V domains shown)
VH: B2 VH with V2Q, Q3S
VL: B1 VL
B5: humanized antibody #9 (antibody, V domains shown)
VH: B2 VH with V2Q, Q3S
VL: B2 VL with E1D, N79S, P82C, T87I
B6: humanized antibody #6 (antibody, V domains shown)
VH: B2 VH with Y94F
VL: B1 VL
B7: humanized antibody #0 (antibody, V domains shown)
VH: B2 VH with Y94F
VL: B2 VL with E1A, V3Q, L4M, V45A, E72D, N79S, T87I
B8: humanized antibody #5 (antibody, V domains shown)
VH: B2 VH with Y94F
VL: B2 VL with I2Q, T87I
B9: humanized antibody #4 (antibody, V domains shown)
VH: B2 VH with Y94F
VL: B2 VL
B10: humanized antibody #3 (antibody, V domains shown)
VH: B2 VH
VL: B2 VL with I2Q, T87I
B11: humanized antibody #1 (antibody, V domains shown)
VH: B2 VH
VL: B2 VL with E1A, V3Q, L4M, V45A, E72D, N79S, T87I
B12: human-rabbit chimeric anti-CAPRIN-1 antibody (antibody, V domains shown)
VH: QSLEESGGRLVTPGTPLTLTCTASGFSLSSHSLGWVRQAPGKGLEWIGDIRSGGSAYYANWAKGRFTISRTSTTVALKMTSLTTEDTATYFCTRTNGPSDLTNRLDLWGQGTLVTVSS
VL: QVLTQTPSSVSAAVGGTVTINCQASQSLYNNENLAWFQQKPGQPPKRLIYGASTLASGVSSRFKGSGSGTQFTLTIGDVQCDDAAIYYCLGEFSCGSADCFAFGGGTEVVVK
B13: rabbit anti-CAPRIN-1 monoclonal antibody (antibody, V domains shown)
VH: B12 VH
VL: B12 VL

Numbering of substitutions follows the chain as printed. These are yes or no findings as the source states them, for the method shown. Some entries that bind do so weakly or less than the wild type.

The first test addresses T1, human CAPRIN-1 protein (human) (UniProt Q14444).
T1 sequence (looked up): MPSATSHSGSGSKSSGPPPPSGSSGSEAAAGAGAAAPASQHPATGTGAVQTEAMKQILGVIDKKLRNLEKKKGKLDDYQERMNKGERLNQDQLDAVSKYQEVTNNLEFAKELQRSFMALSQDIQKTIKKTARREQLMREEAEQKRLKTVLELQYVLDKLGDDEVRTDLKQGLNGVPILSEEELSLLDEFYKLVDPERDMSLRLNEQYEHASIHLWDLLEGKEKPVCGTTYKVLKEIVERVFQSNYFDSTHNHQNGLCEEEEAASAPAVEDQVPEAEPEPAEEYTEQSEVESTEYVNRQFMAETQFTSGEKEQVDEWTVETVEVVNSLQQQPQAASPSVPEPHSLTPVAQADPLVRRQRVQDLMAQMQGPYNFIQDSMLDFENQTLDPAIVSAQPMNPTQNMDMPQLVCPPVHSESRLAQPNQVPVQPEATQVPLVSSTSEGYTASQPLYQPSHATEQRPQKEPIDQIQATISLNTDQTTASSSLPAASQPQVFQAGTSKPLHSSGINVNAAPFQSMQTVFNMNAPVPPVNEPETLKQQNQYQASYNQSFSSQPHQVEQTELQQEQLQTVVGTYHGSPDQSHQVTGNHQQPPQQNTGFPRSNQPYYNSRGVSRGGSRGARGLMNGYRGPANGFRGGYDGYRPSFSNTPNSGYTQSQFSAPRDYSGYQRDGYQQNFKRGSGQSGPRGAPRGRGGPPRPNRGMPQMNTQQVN
As to the kind of experiment: ELISA, CAPRIN-1 protein coated at 5 ug/mL, antibody 1 ug/mL.
On to B1, for which the binding entry is “binds”.
Same read-out and setting: the value for B2 was “binds”; that for B3 was “binds”.
Still for that read-out and setting: the value for B4 was “binds”.
On the same count and under the same terms, next, B5: “binds”.
Take B6: the binding result was “binds”.
On the same count and under the same terms, the value for B7 was “binds”; that for B8 was “binds”.
The same measure, in the same setting: next, B9: “binds”; B10: “binds”.
Still for that read-out and setting: next, B11: “binds”; B12: “binds”.

In the next test the target is T1, human CAPRIN-1 protein (human). As to the kind of experiment: ELISA, CAPRIN-1 protein coated at 1 ug/mL, hybridoma supernatant.
For the molecule B13, the binding entry is on record as “binds”.

A further test has as its target T2, CAPRIN-1 protein expressed on the membrane surface of human cancer cells (human) (UniProt Q14444).
T2 sequence (looked up): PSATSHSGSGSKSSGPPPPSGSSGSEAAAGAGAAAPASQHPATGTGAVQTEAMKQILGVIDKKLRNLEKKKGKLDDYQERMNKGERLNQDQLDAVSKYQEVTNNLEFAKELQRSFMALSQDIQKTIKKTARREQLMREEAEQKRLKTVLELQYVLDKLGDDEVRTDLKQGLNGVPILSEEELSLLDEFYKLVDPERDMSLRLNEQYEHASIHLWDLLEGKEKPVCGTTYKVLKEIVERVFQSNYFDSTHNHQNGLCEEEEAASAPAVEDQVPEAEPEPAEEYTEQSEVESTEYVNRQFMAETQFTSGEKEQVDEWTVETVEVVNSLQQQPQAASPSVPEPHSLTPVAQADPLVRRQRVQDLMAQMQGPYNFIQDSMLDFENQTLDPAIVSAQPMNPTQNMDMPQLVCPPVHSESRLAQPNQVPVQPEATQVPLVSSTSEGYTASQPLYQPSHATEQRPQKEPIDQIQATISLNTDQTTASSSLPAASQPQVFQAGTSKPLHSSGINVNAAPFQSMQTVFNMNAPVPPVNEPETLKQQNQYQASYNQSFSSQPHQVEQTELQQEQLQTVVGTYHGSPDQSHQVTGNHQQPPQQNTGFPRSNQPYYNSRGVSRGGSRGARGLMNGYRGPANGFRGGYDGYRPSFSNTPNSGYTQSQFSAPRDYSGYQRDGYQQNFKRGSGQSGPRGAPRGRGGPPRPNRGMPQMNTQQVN
The experiment in a line: flow cytometry, QG56 and BT-474 cells, hybridoma supernatant.
For B13, the binding result is listed as “binds”.

The target of a further test is T2, CAPRIN-1 protein expressed on the membrane surface of human cancer cells (human). As to the kind of experiment: flow cytometry, 28 human cancer cell lines, hybridoma supernatant.
For B13, the binding result is given as “binds”.

For a further test the target is unchanged. The experiment in a line: flow cytometry, 28 human cancer cell lines, antibody 50 ug/mL.
As to B1, the binding entry was “binds”.
Still for that read-out and setting: the value for B2 was “binds”.
Same read-out and setting: the value for B3 was “binds”; that for B4 was “binds”.
Turning to B5, the binding entry is “binds”.
On the same count and under the same terms, the value for B6 was “binds”; that for B7 was “binds”.
On the same count and under the same terms, next, B8: “binds”; B9: “binds”; B10: “binds”.
For the molecule B11, the binding result is recorded as “binds”.
Still for that read-out and setting: next, B12: “binds”.
